Data as given in PubChem BioAssay AID743121 (NCATS, 2013)
Aim: 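Genes whose silencing strengthens cell killing by camptothecin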 (primary screen). Cell system: MDA-MB-231 cells, a human breast cancer line. Knock-down reagent: single siRNA against human genes, 20 nM siRNA (0.8 pmol per well). Duration: 120 h (drug added 48 h after transfection, read 72 h later). Treatment: camptothecin 20 nM (about EC30) for 72 h; vehicle 0.1% DMSO in parallel plates. Measurement: 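Cell viability by ATP luminescence (CellTiter-Glo) as % of non-targeting siRNA wells, and the log2 ratio of viability without drug over viability with camptothecin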. Direction: log2 vehicle/camptothecin viability: higher = stronger sensitisation to camptothecin. Active means: 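Active genes have an RSA gene-level p-value below 0.001, computed from the ratios of their separate siRNAs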.
Shown is an unselected part of about 26,000 deposited reagents. Of all reagents, 167 (0.63%) got an active call. 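Calls are per gene from RSA p-values that are not deposited; an individual active-marked siRNA can sensitise only weakly.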 The numbers tell different reagents against one gene apart. Not all columns of the deposit are shown.

log2 vehicle/camptothecin viability | call | target gene | reagent
-0.133 | inactive | ASPH (aspartate beta-hydroxylase) | 1
0.376 | inactive | ASPH (aspartate beta-hydroxylase) | 2
0.919 | inactive | ASPH (aspartate beta-hydroxylase) | 3
2.32 | inactive | ASPH (aspartate beta-hydroxylase) | 4
-0.171 | inactive | ASPH (aspartate beta-hydroxylase) | 5
-0.377 | inactive | ASPH (aspartate beta-hydroxylase) | 6
-0.316 | inactive | ASPH (aspartate beta-hydroxylase) | 7
-0.166 | inactive | ASPH (aspartate beta-hydroxylase) | 8
-0.0363 | inactive | ADARB1 (adenosine deaminase RNA specific B1) | 1
-0.41 | inactive | ADARB1 (adenosine deaminase RNA specific B1) | 2
-0.25 | inactive | ADARB1 (adenosine deaminase RNA specific B1) | 3
-0.0764 | inactive | ADARB1 (adenosine deaminase RNA specific B1) | 4
-0.586 | inactive | NPAS4 (neuronal PAS domain protein 4) | 1
-0.573 | inactive | NPAS4 (neuronal PAS domain protein 4) | 2
-0.439 | inactive | NPAS4 (neuronal PAS domain protein 4) | 3
1.58 | inactive | NPAS4 (neuronal PAS domain protein 4) | 4

3 entries already listed, ordered by “log2 vehicle/camptothecin viability”, high to low:
log2 vehicle/camptothecin viability | call | target gene | reagent
-0.0764 | inactive | ADARB1 (adenosine deaminase RNA specific B1) | 4
-0.25 | inactive | ADARB1 (adenosine deaminase RNA specific B1) | 3
-0.586 | inactive | NPAS4 (neuronal PAS domain protein 4) | 1

The listing continues.
log2 vehicle/camptothecin viability | call | target gene | reagent
-0.574 | inactive | VAT1L (vesicle amine transport 1 like) | 1
-0.0136 | inactive | VAT1L (vesicle amine transport 1 like) | 2
-0.32 | inactive | VAT1L (vesicle amine transport 1 like) | 3
-0.33 | inactive | VAT1L (vesicle amine transport 1 like) | 4
-0.398 | inactive | MCTS1 (MCTS1 re-initiation and release factor) | 1
-0.188 | inactive | MCTS1 (MCTS1 re-initiation and release factor) | 2
-0.566 | inactive | MCTS1 (MCTS1 re-initiation and release factor) | 3
-0.176 | inactive | MCTS1 (MCTS1 re-initiation and release factor) | 4
-0.219 | inactive | MXRA5 (matrix remodeling associated 5) | 1
-0.0112 | inactive | MXRA5 (matrix remodeling associated 5) | 2
-0.00318 | inactive | MXRA5 (matrix remodeling associated 5) | 3
-0.0421 | inactive | MXRA5 (matrix remodeling associated 5) | 4
